# From US20060165732A1, “Fungal antigens and eosinophil activity” (priority 2002, published 2006)
# At least one structure is not confirmed: it was looked up by name or label, or the drawing left a doubt.
# Test system: IL-5-induced eosinophil degranulation
# Assay type: cell-based, human
# Details: various concentrations
# Description: To monitor eosinophil degranulation, 200 μL of freshly isolated eosinophils were resuspended in HBSS with 25 mM HEPES and 0.01% gelatin at 5×10^5 cells/mL and incubated with the a particular fungal extract. After incubation for 3 hours at 37° C. in a 5% CO2 atmosphere, cell-free supernatants from each well were collected and stored at −20° C. To quantitate eosinophil degranulation, the concentration of one of the eosinophil granule proteins in the sample supernatants, EDN, was measured by specific RIA, as described previously (Horie & Kita, 1994, J. Immunol., 152:5457). The RIA is a double-Ab competition assay in which radioiodinated EDN, rabbit anti-EDN Ab, and burro anti-rabbit IgG are used (Abu-Ghazaleh et al., 1989, J. Immunol., 142:2393). Sensitivity of the kit was 2 ng/mL. Total cellular EDN was measured in parallel supernatants from cells lysed with Nonidet P-40 detergent (Sigma Chemical Co.). All experiments were conducted in duplicate.
# To examine the effect of cytochalasin B in the eosinophil response, eosinophils were preincubated with or without cytochalasin B (5 μg/mL) for 15 minutes at 37° C. After preincubation, eosinophils were exposed to either Alternaria culture extract (100 μg/mL) or IL-5 (10 ng/mL) for 3 hours at 37° C., and EDN release from eosinophils was measured. […]
smiles,measurement,value
COC[C@H]1OC(=O)c2coc3c2[C@@]1(C)C1=C(C3=O)[C@@H]2CCC(=O)[C@@]2(C)C[C@H]1OC(C)=O [Wortmannin],effect on IL-5-induced eosinophil degranulation,completely inhibited
